# The list shows a part of the results. The main result of the screen is listed elsewhere. These columns were measured beside it and carry no call. Compounds called inactive in the main read-out are mostly missing here. Potencies come from curve fits of mixed quality, noted in brackets.
# Assay: qHTS Assay for Lipid Storage Modulators in Drosophila S3 Cells;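 for cell number change: cells counted by Cell Tracker Red CMTPX staining in the red channel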
# Details: BODIPY lipid droplet fluorescence, 18-24 h; for cell number change: measured here: cell count max response, cells fed with added oleic acid
# Method in brief: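 Drosophila S3 cells loaded with oleic acid (400 uM, as added) and compounds at several concentrations; lipid droplets imaged by 488-nm laser-scanning cytometry, 500–530 nm intensity and object ratio to cell channel. Percent activity normalized to 20 uM Triacsin C.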
# [1] = measured here: lipid fluorescence (Fed channel) AC50, cells fed with added oleic acid
# [2] = measured here: cell number channel AC50, cells fed with added oleic acid
smiles,measurement,setting,value
CC(=O)Nc1nnc(SCC(=O)c2ccc3c(c2)Cc2ccccc2-3)s1,cell number change,,13.8%
same,AC50,[1],"6510 nM [rising, partial curve]"
C/C(=N\NC(=O)c1c(Cl)cnn1C)c1ccc(NC(=O)c2ccncc2)cc1,cell number change,,19.2%
same,AC50,[1],"13000 nM [rising, partial curve, poor fit]"
CC(=O)N1CSCC1C(=O)O (configuration not stated),cell number change,,-19.8%
same,AC50,[1],"116 nM [falling, full curve]"
Cc1c(OCC(=O)N2CCC(C(N)=O)CC2)ccc2c3c(c(=O)oc12)CCC3,cell number change,,24.6%
CCN(CC)S(=O)(=O)c1cccc2cccnc12,AC50,[1],"8200 nM [falling, partial curve]"
CCC(=O)N(CC(=O)Nc1sc(C)c(C)c1C(N)=O)C1CCCC1,cell number change,,0.588%
same,AC50,[1],"651 nM [rising, full curve, poor fit]"
Cc1ccc(Nc2ncnc3sc(C)c(C)c23)cc1C,cell number change,,6.58%
same,AC50,[2],"1300 nM [rising, full curve]"
Cc1ccc(C(C)C)c(OCCNCCc2ccccc2)c1,cell number change,,-47.2%
same,AC50,[2],"13000 nM [falling, partial curve, poor fit]"
same,AC50,[1],"18400 nM [falling, single point]"
CCCCn1c(N)c(N(CCOC)C(=O)COC(=O)C(C)Oc2ccc(Cl)cc2)c(=O)[nH]c1=O (configuration not stated),cell number change,,1.25%
same,AC50,[2],"517 nM [falling, full curve, poor fit]"
same,AC50,[1],"10300 nM [falling, partial curve, poor fit]"
O=C1c2ccccc2N2C(=O)c3ccccc3C2N1Cc1ccco1 (configuration not stated),cell number change,,0.96%
CC[C@@H](C)[C@H](NC(=O)CCc1c(C)c2cc3c4c(oc3c(C)c2oc1=O)CCCC4)C(=O)O,cell number change,,26.2%
same,AC50,[2],"2910 nM [rising, full curve, poor fit]"
same,AC50,[1],"3260 nM [rising, single point]"
O=C(CN1C(=O)C2C3C=CC(C3)C2C1=O)NCCN1CCCc2ccccc21 (configuration not stated),cell number change,,-4.71%
same,AC50,[1],"231 nM [rising, full curve]"
COc1ccc(NC(=O)CN(C)Cc2cccs2)cc1Cl,cell number change,,-6.67%
NC(=O)C1CCN(C(=O)c2cc3n(n2)C(C(F)(F)F)CC(c2ccco2)N3)CC1 (configuration not stated),cell number change,,33.9%
same,AC50,[2],"731 nM [rising, full curve, poor fit]"
same,AC50,[1],"2910 nM [falling, single point]"
COc1ccc(S(=O)(=O)NCCCCCC(=O)O)cc1C(=O)O,cell number change,,0.82%
same,AC50,[2],"146 nM [falling, full curve, poor fit]"
Cc1cc(N/N=C/c2ccccc2)nc(N2CCOCC2)n1,cell number change,,-5.23%
same,AC50,[1],"6510 nM [rising, single point]"

# An excerpt of these results, bar-delimited.
smiles | measurement | setting | value
CCC(=O)N(CC(=O)Nc1sc(C)c(C)c1C(N)=O)C1CCCC1 | cell number change |  | 0.588%
CC[C@@H](C)[C@H](NC(=O)CCc1c(C)c2cc3c4c(oc3c(C)c2oc1=O)CCCC4)C(=O)O | AC50 | [2] | 2910 nM [rising, full curve, poor fit]

# Source: PubChem BioAssay AID2685 (National Center for Advancing Translational Sciences (NCATS), 2010)
